No constants are given. Whether binding was seen depends on the method and setting. A result given as binding can be weak or reduced; the word gives no strength. For part of these data: In cells and extracts the contact can be indirect. For part of these data: Sequences can lack the tags named with a protein. Values belong to the molecule of their own block, whether it stands above or below them.
Legend:
[1] = biological target: T1, AtSPO11-1 (Arabidopsis thaliana) (UniProt Q9M4A2); experiment: yeast three-hybrid; pBridge vector system (Clontech); bridge protein AtPRD1-A (1-388 aa) not expressed; growth in SD/-Leu-Trp-His-Ade medium
T1 sequence: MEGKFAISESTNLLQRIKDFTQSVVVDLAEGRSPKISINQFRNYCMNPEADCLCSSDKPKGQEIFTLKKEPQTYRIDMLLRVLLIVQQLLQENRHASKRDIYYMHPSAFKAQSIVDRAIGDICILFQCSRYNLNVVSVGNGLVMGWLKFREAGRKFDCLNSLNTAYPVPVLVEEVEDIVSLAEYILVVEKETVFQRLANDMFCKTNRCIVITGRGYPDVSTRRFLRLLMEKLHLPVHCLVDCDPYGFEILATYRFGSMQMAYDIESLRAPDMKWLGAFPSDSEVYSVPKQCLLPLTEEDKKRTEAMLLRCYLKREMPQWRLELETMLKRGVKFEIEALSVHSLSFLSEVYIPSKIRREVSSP

By UniProt entry, the sequences of proteins in these tests, tags left out. Where a name states a change or a piece, a line headed by the entry shows the natural chain unless it says otherwise.
UniProt Q5Q0E6: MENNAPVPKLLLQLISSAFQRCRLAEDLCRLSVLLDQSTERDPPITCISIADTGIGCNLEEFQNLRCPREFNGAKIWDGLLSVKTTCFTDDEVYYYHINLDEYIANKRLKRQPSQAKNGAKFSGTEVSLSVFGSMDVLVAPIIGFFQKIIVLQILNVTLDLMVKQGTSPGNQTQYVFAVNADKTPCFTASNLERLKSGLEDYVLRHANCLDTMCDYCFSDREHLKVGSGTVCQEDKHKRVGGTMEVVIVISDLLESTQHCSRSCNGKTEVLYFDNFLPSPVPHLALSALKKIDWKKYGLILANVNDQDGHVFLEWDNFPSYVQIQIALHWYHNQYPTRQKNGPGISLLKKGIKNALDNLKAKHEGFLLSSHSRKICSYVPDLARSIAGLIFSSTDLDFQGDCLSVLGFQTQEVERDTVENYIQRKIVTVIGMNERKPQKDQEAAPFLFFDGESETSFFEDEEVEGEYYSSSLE

[2] = biological target: T1, AtSPO11-1 (Arabidopsis thaliana); experiment: two-hybrid; Gal4 vector system (Clontech), pGBKT7 and pGADT7, yeast AH109; growth on SD/-Trp-Leu-His-Ade plates, 3 to 7 days, 30 °C; cells serially diluted
[3] = biological target: T2, AtSPO11-2 (Arabidopsis thaliana) (UniProt Q9M4A1); experiment: as above
T2 sequence: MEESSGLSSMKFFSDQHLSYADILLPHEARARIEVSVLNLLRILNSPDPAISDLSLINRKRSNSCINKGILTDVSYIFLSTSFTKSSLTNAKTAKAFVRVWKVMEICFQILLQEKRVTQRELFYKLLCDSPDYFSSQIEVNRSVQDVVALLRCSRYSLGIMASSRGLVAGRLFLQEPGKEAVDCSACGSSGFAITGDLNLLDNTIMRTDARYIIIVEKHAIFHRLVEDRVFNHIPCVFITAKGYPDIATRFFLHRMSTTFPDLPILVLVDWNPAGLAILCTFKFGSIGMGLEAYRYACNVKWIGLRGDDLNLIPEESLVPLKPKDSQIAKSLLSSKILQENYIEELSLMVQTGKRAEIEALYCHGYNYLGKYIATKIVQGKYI

[4] = biological target: T1, AtSPO11-1 (Arabidopsis thaliana); experiment: yeast three-hybrid; pBridge vector system (Clontech); bridge protein AtPRD1-A (1-388 aa) expressed; growth in SD/-Leu-Trp-His-Met medium, 5 to 8 days, 30 °C
[5] = biological target: T3, AtSPO11-1 (BiFC fusion) (Arabidopsis thaliana) (UniProt Q9M4A2); experiment: split reporter; BiFC, pSPYNE-35S and pSPYCE-35S, onion epidermal cells, gene gun; confocal microscopy 16–24 h after transformation
T3 sequence: T1 sequence

[6] = biological target: T4, AtSPO11-2 (BiFC fusion) (Arabidopsis thaliana) (UniProt Q9M4A1); experiment: as above
T4 sequence: T2 sequence

[7] = biological target: MTOPVIB (Arabidopsis thaliana) (UniProt Q5Q0E6); experiment: two-hybrid; Gal4 vector system (Clontech), pGBKT7 and pGADT7, yeast AH109; growth on SD/-Trp-Leu-His-Ade plates, 3 to 7 days, 30 °C; cells serially diluted
[8] = biological target: MTOPVIB (BiFC fusion) (Arabidopsis thaliana) (UniProt Q5Q0E6); experiment: split reporter; BiFC, pSPYNE-35S and pSPYCE-35S, onion epidermal cells, gene gun; confocal microscopy 16–24 h after transformation
[9] = biological target: MTOPVIB (Arabidopsis thaliana) (UniProt Q5Q0E6); experiment: yeast three-hybrid; pBridge vector system (Clontech); bridge protein AtPRD1-A (1-388 aa) not expressed; growth in SD/-Leu-Trp-His-Ade medium
[10] = biological target: MTOPVIB (Arabidopsis thaliana) (UniProt Q5Q0E6); experiment: yeast three-hybrid; pBridge vector system (Clontech); bridge protein AtPRD1-A (1-388 aa) expressed; growth in SD/-Leu-Trp-His-Met medium, 5 to 8 days, 30 °C

- binding [1]: binds
- binding [2]: binds
- binding [3]: binds
- binding [4]: binds
Molecule: MTOPVIB (from UniProt Q5Q0E6-3)

- binding [5]: binds
- binding [6]: binds
Molecule: MTOPVIB (BiFC fusion) (from UniProt Q5Q0E6-3)

- binding [7]: binds
B1: AtPRD1-A (1–388 aa) (domain or fragment, UniProt O23277 1-388)
chain: MFFQHSQLQNSDHLLHESMADSNHQSLSPPCANGHRSTISLRDDQGGTFCLICFSNLVSDPRIPTVHVSYALHQLSIAISEPIFLRTLLSSHIHFLVSPLVHALSSIDDAPIAIQIMDMISLLCSVEESSIGEDFVERISDQLSSGALGWSRRQLHMLHCFGVLMSCENININSHIRDKEALVCQLVEGLQLPSEEIRGEILFALYKFSALQFTEQNVDGIEVLSLLCPKLLCLSLEALAKTQRDDVRLNCVALLTILAQQGLLANSHSNSASSMSLDEVDDDPMQTAENVAARPCLNVLFAEAIKGPLLSTDSEVQIKTLDLIFHYISQESTPSKQIQVMVEENVADYIFEILRLSECKDQVVNSCLRVLDLFSLAEHSFRKRLVIG

- binding [8]: binds
B2: AtPRD1-A (1–388 aa) (BiFC fusion) (domain or fragment, UniProt O23277 1-388)
chain: B1 chain

- binding [8]: binds
B3: AtPRD1 (BiFC fusion) (protein, UniProt O23277 1-1330)
chain: MFFQHSQLQNSDHLLHESMADSNHQSLSPPCANGHRSTISLRDDQGGTFCLICFSNLVSDPRIPTVHVSYALHQLSIAISEPIFLRTLLSSHIHFLVSPLVHALSSIDDAPIAIQIMDMISLLCSVEESSIGEDFVERISDQLSSGALGWSRRQLHMLHCFGVLMSCENININSHIRDKEALVCQLVEGLQLPSEEIRGEILFALYKFSALQFTEQNVDGIEVLSLLCPKLLCLSLEALAKTQRDDVRLNCVALLTILAQQGLLANSHSNSASSMSLDEVDDDPMQTAENVAARPCLNVLFAEAIKGPLLSTDSEVQIKTLDLIFHYISQESTPSKQIQVMVEENVADYIFEILRLSECKDQVVNSCLRVLDLFSLAEHSFRKRLVIGFPSVIRVLHYVGEVPCHPFQIQTLKLISSCISDFPGIASSSQVQEIALVLKKMLERYYSQEMGLFPDAFAIICSVFVSLMKTPSFGETADVLTSLQESLRHSILASLSLPEKDSTQILHAVYLLNEVYVYCTASTSINKTICIELRHCVIDVCTSHLLPWFLSDVNEVNEEATLGIMETFHSILLQNSDIQAKEFAELLVSADWFSFSFGCLGNFCTDNMKQRIYLMLSSLVDILLEQKTGSHIRDALHCLPSDPQDLLFLLGQASSNNQELASCQSAALLIFHTSSIYNDRLADDKLVLASLEQYIILNKTSLICAISDSPALLNLVNLYGLCRSLQNERYQISYSLEAERIIFHLLNEYEWDLGSINIHLESLKWLFQQESISKSLIYQIQKISRNNLIGNEVHNVYGDGRQRSLTYWFAKLISEGDNYAATLLVNLLTQLAEKEEQENDVISILNLMNTIVSIFPTASNNLSMNGIGSVIHRLVSGFSNSSLGTSFRTLLLLVFNILTSVQPAVLMIDESWYAVSIKLLNFLSLRDTAIKQNHEDMVVIGILSLVLYHSSDGALVEASRNIVSNSYLVSAINTVVDVACSKGPALTQCQDETNIGEALAFTLLLYFFSLRSLQIVLAGAVDWQTFFGTSTSLETLPVVCIHCHNLCRLMHFGAPQIKLIASYCLLELLTGLSEQVDIKKEQLQCSSSYLKSMKAVLGGLVFCDDIRVATNSALCLSMILGWEDMEGRTEMLKTSSWYRFIAEEMSVSLAMPCSASSTYVNHHKPAVYLTVAMLRLKNKPVWLRTVFDESCISSMIQNLNGINISREIVILFRELMQAELLNSQQVTKLDRAFQECRKQMHRNGTRDETVEEQVQRKIPSIHDHSEFCNYLVHLMVSNSFGHPSESETYTQKKKQILDEMEQFSELISTREGRVSPIQEETRQMQTERIV

- binding [7]: no binding
B4: AtPRD1-E (1110–1330 aa) (domain or fragment, UniProt O23277 1110-1330)
chain: TNSALCLSMILGWEDMEGRTEMLKTSSWYRFIAEEMSVSLAMPCSASSTYVNHHKPAVYLTVAMLRLKNKPVWLRTVFDESCISSMIQNLNGINISREIVILFRELMQAELLNSQQVTKLDRAFQECRKQMHRNGTRDETVEEQVQRKIPSIHDHSEFCNYLVHLMVSNSFGHPSESETYTQKKKQILDEMEQFSELISTREGRVSPIQEETRQMQTERIV

- binding [7]: binds weakly
B5: AtPRD1-D (963–1109 aa) (domain or fragment, UniProt O23277 963-1109)
chain: VSNSYLVSAINTVVDVACSKGPALTQCQDETNIGEALAFTLLLYFFSLRSLQIVLAGAVDWQTFFGTSTSLETLPVVCIHCHNLCRLMHFGAPQIKLIASYCLLELLTGLSEQVDIKKEQLQCSSSYLKSMKAVLGGLVFCDDIRVA

- binding [7]: no binding
B6: AtPRD1-C (813–962 aa) (domain or fragment, UniProt O23277 813-962)
chain: ISEGDNYAATLLVNLLTQLAEKEEQENDVISILNLMNTIVSIFPTASNNLSMNGIGSVIHRLVSGFSNSSLGTSFRTLLLLVFNILTSVQPAVLMIDESWYAVSIKLLNFLSLRDTAIKQNHEDMVVIGILSLVLYHSSDGALVEASRNI

- binding [9]: binds
- binding [10]: binds
B7: AtSPO11-1 (protein, UniProt Q9M4A2 1-362)
chain: T1 sequence

- binding [7]: no binding
B8: AtPRD1-B (389–812 aa) (domain or fragment, UniProt O23277 389-812)
chain: FPSVIRVLHYVGEVPCHPFQIQTLKLISSCISDFPGIASSSQVQEIALVLKKMLERYYSQEMGLFPDAFAIICSVFVSLMKTPSFGETADVLTSLQESLRHSILASLSLPEKDSTQILHAVYLLNEVYVYCTASTSINKTICIELRHCVIDVCTSHLLPWFLSDVNEVNEEATLGIMETFHSILLQNSDIQAKEFAELLVSADWFSFSFGCLGNFCTDNMKQRIYLMLSSLVDILLEQKTGSHIRDALHCLPSDPQDLLFLLGQASSNNQELASCQSAALLIFHTSSIYNDRLADDKLVLASLEQYIILNKTSLICAISDSPALLNLVNLYGLCRSLQNERYQISYSLEAERIIFHLLNEYEWDLGSINIHLESLKWLFQQESISKSLIYQIQKISRNNLIGNEVHNVYGDGRQRSLTYWFAKL
